Source: the supplement of paper PMC5949888
± gives the standard deviation of the averaged measurements. Most values lie at the floor of the assay. Slopes are relative: functional sequences can read slightly below zero.

Tested on: Saccharomyces cerevisiae PS128 hsf1 delta, HSF1(1-493) fusion
Assay: growth estimate (transactivation domain function in HSF1 fusion, heat-shock survival) (a.u. (slope of normalised read count over time)); higher = stronger growth at 37°C, i.e. more transactivation activity
Settings: library: random library

Substance | growth estimate
MPNRYFRHST | < -0.25
MLPGKCEQQPKSYHPRHCWP | < -0.25
RAISQPSFKCVTLKDVVRSA | < -0.25
RANVGNTFRNRGGCPYSLLI | < -0.25
GSTVQRGPSRRLSHNPTHFR | < -0.25
RDNPSMKYL | < -0.25
FGLEWGGFGEVLQ | < -0.25
TILKGGGLP | < -0.25
RMDIIPYYALERIPLARGAG | < -0.25
VGSTWPFPVNLHYQWGKTQV | < -0.25
RHPGAV | < -0.25
RSAGAELFPSNLEACRV | < -0.25
QFAERPVEIG | < -0.25
VLSGPGSTAKNMGPKDMRRQ | < -0.25
LSYYPEVHAGSWTPISIRNY | < -0.25
GPYLSTWKLHPRLCLASL | < -0.25
CTKTVAFNLTSSFLQCEVWL | < -0.25
NGKSLSG | < -0.25
GSNATQRQ | < -0.25
RFELCTGL | < -0.25
WGSELKELFGL | < -0.25
YNG | -0.243 ± 0.0093
TLLEEPITRVLDALEKPTGT | < -0.25

Substance | growth estimate
SCLLLPTCVDV | < -0.25
ATNSALPRMASLRVQLKFRV | < -0.25
LDRSALRHGSTKH | < -0.25
QISNFQRALRVDSFGAWVAS | < -0.25
GLPRCSAIYWAYSCGHRLLQ | < -0.25
KMPAFEVLPARLTGGVGFWP | < -0.25
QAFEVMELGQPRQLTNGFTT | < -0.25
TAP | < -0.25
LAYVWKSEPLPGGDRVRRSH | < -0.25
PVHEGSGGW | < -0.25
TLELMHVNSRQNVWSLGQLT | < -0.25
HAIQ | < -0.25
EWMV | < -0.25
PRRVIGGHYAGGAASCATSR | < -0.25
WWTGVRGWCRM | < -0.25
AKQTIIRQGGPK | < -0.25
TRIRR | -0.246
ACVPCVRATRGIGALYFSPD | < -0.25
APP | < -0.25
TSRSV | < -0.25
MQGGR | -0.248
ITSWEGLLWESNFADECERA | -0.0857
GLTQKYRSRRHVGILGVNRY | < -0.25

Reformatted as comma-separated lines: entries from further up.
Substance,growth estimate
APP,< -0.25
TSRSV,< -0.25

The results go on.

Substance | growth estimate
RTVHG | < -0.25
PYFTLKLREVSSHVSHALGF | < -0.25
YSYSAQAGLALMRVASVSVR | < -0.25
SYARAGSIVRVGWGPGSGRG | < -0.25
GSLR | < -0.25
FWASRAITLSF | < -0.25
YHVSVPCNCHGKLDIEFGTP | < -0.25
PCSSNGGQFCTTASVLLRLH | < -0.25
SWCLS | < -0.25
GPGVQGPGSAL | -0.172
PNFMVQACLPGTYELRTPPK | < -0.25
GQMSDL | < -0.25
VGTSSFTVGFAGTDAS | < -0.25
PTVNHIVDGHRVIA | -0.233
WRSSRKIYGETHLLLT | < -0.25
WDTTPVEKLGFFITYHGLYR | < -0.25
MDESAVGTVN | < -0.25
YAFRD | < -0.25
RLSRDDNLLVWLRSWRVPLK | < -0.25
QLPSYKTPCDTVASYPASAG | < -0.25
TVGLAC | < -0.25
SRIQDKDPLSTGQQRDYVID | < -0.25
DSRASYVGHVDRRLLIRWGP | < -0.25

Substance | growth estimate
HEDYCWGIASHASLDPAT | < -0.25
IER | < -0.25
SSTVDATYGDNVYSEKIS | < -0.25
GIEVQ | < -0.25
GSSTPTKSKNPRACLKGGFE | < -0.25
SVHAS | < -0.25
NQDLIDTCYANSMIMCQWNE | -0.0659
SWRVSFTQKQDYGSVTCPEQ | < -0.25
NPLSRHARHH | < -0.25
MIAAEAGGHMGETPRRPSHY | < -0.25
RIQVRRPRLRASIQAPITHQ | < -0.25
HIGRKVSFRWSRSDCRSIPV | < -0.25
SRLDMRDTWIVRGVARLRLR | < -0.25
ELLDGPPTVHISSRMHRY | < -0.25
AGDIVTKDGRKK | < -0.25
SGPGLVAGVSVS | < -0.25
GLGGSAVKLLISKTVSVVSP | < -0.25
RNGLPHYPLEPQHVAQGDHG | < -0.25
GIPWVIVKF | < -0.25
FAGCCCHPSFRVLRKVINHQ | < -0.25
TSPSLQRASDISG | < -0.25
PGPASRPCQAKWLPPCRQIP | < -0.25
APRGVVPGCVTRFTE | < -0.25

As entered above:
Value of HEDYCWGIASHASLDPAT under growth estimate: < -0.25
Value of SVHAS under growth estimate: < -0.25
Value of SSTVDATYGDNVYSEKIS under growth estimate: < -0.25
Value of SGPGLVAGVSVS under growth estimate: < -0.25

Next records

Substance | growth estimate
GRSVMGIIVARAQARS | < -0.25
RRRVLSRGMERYLPVRTSLY | < -0.25
DPLVCE | < -0.25
PRTWNDDPCAFRF | < -0.25
SRQ | < -0.25
QMLCFKT | < -0.25
STLADTTLMAIGPPNVRCDS | < -0.25
RNPSNEIYSNIMPCQ | < -0.25
YCSCFLLMLKRATAGCA | < -0.25
TYCGYLPFESNGRL | < -0.25
TRKVDEKDV | < -0.25
LGVVKTWAGYLSGSRRFRSD | < -0.25
YLVTGIFSTRDRIRGVWAKI | -0.245
NWGGSVGVPASVI | < -0.25
SSAAYSKLGIGDA | < -0.25
DRQDISSRPSLSCI | < -0.25
MRRDSTKCFRGVGNSTGTGK | < -0.25
PHTFPCHLCLDWNPGAVAYT | < -0.25
GSKRLHSCARDFSYDAEQVD | < -0.25
THRRHKPSIRNKRRSSTSTG | < -0.25
YTAGATGNGSD | < -0.25
VLKSALRDYKRTTCLPFRRR | < -0.25
RRFQKS | -0.25

Substance | growth estimate
DEPFTYACLSVIRRPNGTVR | < -0.25
GFSRVEELVITFSDLSLELR | < -0.25
TLKGRSVIRTLWAVGVWHVK | < -0.25
KKAGMHRGRSAG | < -0.25
TVVMRGLKHPVGGICQKLVG | < -0.25
LSSAHRSIRERCARLTSGYT | < -0.25
LLGTRQFLNIATDMQGERSE | < -0.25
RFTCYSWSTDRTCVHYDVGG | < -0.25
VEGPTGA | < -0.25
TCALYTPGSNQVWTGGHILS | < -0.25
HLNRGEVVLTFPGRATRILP | < -0.25
VGHLCGLTIRGKLCAVNKCR | < -0.25
IARIGVSQNILEPPRC | < -0.25
AMYYTPLCLIVVEFGVTEAV | < -0.25
GEQLSGIATPESGCALGR | -0.245
GVYNDG | < -0.25
CSIARAC | < -0.25
PERLSRVGSSSATALSESSG | < -0.25
SLIT | < -0.25
RRHGATYSLRAQIG | < -0.25
CNCLSGMLIYSHSPSRLVRR | < -0.25
QLA | < -0.25
LSTLLPYWLRVFC | -0.197

Substance | growth estimate
VQLAFSEAGKSAGREFSSQA | -0.243
LGIVCRSIGGRVTKLASVGS | < -0.25
DHIQIREGEGLGCEASRTVH | < -0.25
SCQAQRQSSRSGKR | < -0.25
VRSI | < -0.25
KIYAWIAKKEVRDWAEVAPR | < -0.25
QLLFTVPVYSLYISRTRIIS | < -0.25
IIFSRRHLFKLLTAGLLPRR | < -0.25
DNLRRTSPEVSL | < -0.25
AAGNI | < -0.25
GTCSGRTNRPRVWVIPCARL | < -0.25
KQMDYEGSTTRMRTLRSVYV | < -0.25
SDTESLNKDHLIGRGKSLSQ | < -0.25
ESVHPFIVACANHKNQILAP | < -0.25
GGIWSILRTTQLLGDARTQS | < -0.25
RVRKQLRA | < -0.25
LGKCRSSFHLRVRGTSGFRA | < -0.25
ESYPVGGRPQMFEFVERV | < -0.25
DTDGRCGSRRRGWTCNRDEM | < -0.25
